Amino acid sequences for entries named in this document (tags omitted). A change or cut given only in a name is not applied to a line headed by its entry.
UniProt P22734: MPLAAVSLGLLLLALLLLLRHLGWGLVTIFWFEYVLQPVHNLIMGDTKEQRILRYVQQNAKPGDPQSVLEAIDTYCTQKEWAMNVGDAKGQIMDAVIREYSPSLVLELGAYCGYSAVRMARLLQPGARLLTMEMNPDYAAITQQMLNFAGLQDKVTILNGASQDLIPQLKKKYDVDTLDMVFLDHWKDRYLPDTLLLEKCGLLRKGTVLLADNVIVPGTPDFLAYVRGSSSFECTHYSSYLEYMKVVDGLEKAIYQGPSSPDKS

This list was built around the results that the source calls inconclusive (neither active nor inactive); the mix of calls is not that of the screen. A potency beside an inconclusive call is a rough fit, not a confirmed value. Calls of active or inactive are those of the source. Rule for the calls: active = hit-call score of the fitted dose curve at least 0.9, where 1 is the maximum; inconclusive = response in the unintended direction; inactive = score below 0.9.
The compounds below were run against rat Catechol-O-Methyl Transferase (COMT), Comt (gene 24267) (UniProt P22734) (assay: NVS_ENZ_rCOMT: NovaScreen (NVS) Enzymatic Assay for rat Catechol-O-Methyl Transferase (COMT) (AID 2283235)).
Procedure, shortened: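 Cell-free enzyme activity with protein extracted from rat dorsal striatum, measured by HPLC with absorbance detection. Compounds screened at 25 uM in duplicate; actives then run in concentration-response up to 50 uM, loss of signal versus DMSO.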
`CCOP(=S)(Oc1ccc([N+](=O)[O-])cc1)c1ccccc1` (stereo not drawn) was tested, and the AC50 was inconclusive: 25000 nM.
In the case of `CC(Cc1ccc(OCC(=O)O)cc1)NCC(O)c1csc(C(F)(F)F)n1` (stereo not drawn), the outcome is reported as “inactive”.
`CCOP(=O)(OCC)Oc1nc(Cl)c(Cl)cc1Cl` was tested, and the outcome was “inactive”.
`CCC(C)c1cc([N+](=O)[O-])cc([N+](=O)[O-])c1O` (stereo not drawn) was tested, and the AC50 was active: 1100 nM.
For `CC12CC1(C)C(=O)N(c1cc(Cl)cc(Cl)c1)C2=O` (stereo not drawn), the AC50 was inconclusive: 210 nM.
`CCCCc1ccccc1` was tested, and the outcome was “inactive”.
With `Oc1cccc2cccnc12` the AC50 was active: 1530 nM.
With `CCC(C)(CC)c1cc(NC(=O)c2c(OC)cccc2OC)on1` the outcome was “inactive”.
For `COP(=S)(OC)Oc1nc(Cl)c(Cl)cc1Cl`, the outcome was “inactive”.
For `CO/C=C(/C(=O)OC)c1ccccc1Oc1cc(Oc2ccccc2C#N)ncn1`, the AC50 was inconclusive: 26400 nM.
In the case of `CCCCCCCCOC(=O)c1ccccc1C(=O)OCCCCCCCC`, the AC50 is reported as inconclusive: 374 nM.
For `OCCCBr`, the AC50 was inconclusive: 25000 nM.
`CC(C)OC(=O)Nc1cccc(Cl)c1` was tested, and the outcome was “inactive”.

Reference: PubChem BioAssay (EPA / NIEHS)
